Test results: article PMC4919659 (2016)
These are yes or no findings as the source states them, for the method shown. In cells and extracts the contact can be indirect. For some assays here: A result given as binding can be weak or reduced; the word gives no strength. For some assays here: Sequences can lack the tags named with a protein.

Tests used:
myc-MST1 K59R = biological target: T1, myc-MST1 K59R (UniProt Q13043); test: co-IP; Anti-c-Myc Immunoprecipitation kit (Sigma) on co-transfected cell lysates; blot with anti-GFP; repeated three times
T1 sequence: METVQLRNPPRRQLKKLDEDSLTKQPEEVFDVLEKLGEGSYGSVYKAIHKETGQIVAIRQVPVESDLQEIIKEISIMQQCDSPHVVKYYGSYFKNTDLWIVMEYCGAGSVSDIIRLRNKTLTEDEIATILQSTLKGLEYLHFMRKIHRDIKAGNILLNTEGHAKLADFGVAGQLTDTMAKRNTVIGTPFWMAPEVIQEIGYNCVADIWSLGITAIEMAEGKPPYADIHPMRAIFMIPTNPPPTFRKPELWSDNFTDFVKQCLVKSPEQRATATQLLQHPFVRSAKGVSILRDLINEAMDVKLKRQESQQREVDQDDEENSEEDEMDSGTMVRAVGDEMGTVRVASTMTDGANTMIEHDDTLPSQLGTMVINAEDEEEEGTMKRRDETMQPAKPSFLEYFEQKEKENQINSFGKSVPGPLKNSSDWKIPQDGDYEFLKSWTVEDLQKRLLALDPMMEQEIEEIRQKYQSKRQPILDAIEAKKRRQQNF

mCherry-MST1ΔSARAH = biological target: T2, mCherry-MST1ΔSARAH (UniProt Q13043); test: FRET or BRET; FLIM-FRET in fixed COS7 cells co-transfected with EGFP-labelled donor and mCherry-labelled acceptor; 96-well plate, wide-field time-gated FLIM, 10 fields of view per well, EGFP lifetime from a monoexponential fit; shift of at least 32 ps taken as significant
T2 sequence: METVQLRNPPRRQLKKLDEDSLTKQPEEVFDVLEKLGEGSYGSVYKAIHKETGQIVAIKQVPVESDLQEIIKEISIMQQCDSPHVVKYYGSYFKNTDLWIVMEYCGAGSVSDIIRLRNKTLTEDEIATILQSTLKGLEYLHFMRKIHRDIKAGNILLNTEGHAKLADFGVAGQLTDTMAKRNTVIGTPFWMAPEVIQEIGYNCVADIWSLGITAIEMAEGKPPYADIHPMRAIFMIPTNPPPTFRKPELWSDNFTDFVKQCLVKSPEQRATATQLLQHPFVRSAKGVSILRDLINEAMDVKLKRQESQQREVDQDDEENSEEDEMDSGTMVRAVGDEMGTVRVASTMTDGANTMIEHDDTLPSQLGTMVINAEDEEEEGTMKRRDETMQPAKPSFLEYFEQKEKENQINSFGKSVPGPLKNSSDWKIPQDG

mCherry-SARAH_(MST1) [1] = biological target: T3, mCherry-SARAH_(MST1) (UniProt Q13043); test: as above
T3 sequence: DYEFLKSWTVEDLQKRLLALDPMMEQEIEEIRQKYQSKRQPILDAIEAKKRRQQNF

mCherry-MST1 = mCherry-MST1 (UniProt Q13043); test: FRET or BRET; FLIM-FRET in fixed COS7 cells co-transfected with EGFP-labelled donor and mCherry-labelled acceptor; optically sectioned FLIM with a spinning Nipkow disc, 40x objective; monoexponential fit and global double exponential fit (FRET fraction, KD per cell from calibrated intensities)
mCherry-SARAH_(MST1) [2] = biological target: T3, mCherry-SARAH_(MST1); test: as above

binding (myc-MST1 K59R): binds
binding (mCherry-MST1ΔSARAH): no binding
binding (mCherry-SARAH_(MST1) [1]): binds
binding (mCherry-MST1): binds
binding (mCherry-SARAH_(MST1) [2]): binds
Substance: EGFP-RASSF1 (wild type) (from UniProt Q9NS23-2)
